Measurements from the supplement of paper PMC12823440, “Inhibitors supercharge kinase turnover through native proteolytic circuits” (Nature, 2025).
Structures can show the parent of a compound that is named as a salt. The list shows a part of the results. The calls rarely recur for the same compound in another form.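 Kinases were expressed as nanoluciferase fusions in K562 cells and luminescence was read every 4 h between 2 and 18 h as percent of control, DMSO set to 100% and a positive control to 0%. A time point counts as decreased when the signal drops significantly (2 sigma). The hit call is the authors' own, does not follow from the count of time points alone, and its rule is not shown.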

Sequences of proteins named here, by UniProt entry; tags and fusion partners are left off.
UniProt P29317, whole entry: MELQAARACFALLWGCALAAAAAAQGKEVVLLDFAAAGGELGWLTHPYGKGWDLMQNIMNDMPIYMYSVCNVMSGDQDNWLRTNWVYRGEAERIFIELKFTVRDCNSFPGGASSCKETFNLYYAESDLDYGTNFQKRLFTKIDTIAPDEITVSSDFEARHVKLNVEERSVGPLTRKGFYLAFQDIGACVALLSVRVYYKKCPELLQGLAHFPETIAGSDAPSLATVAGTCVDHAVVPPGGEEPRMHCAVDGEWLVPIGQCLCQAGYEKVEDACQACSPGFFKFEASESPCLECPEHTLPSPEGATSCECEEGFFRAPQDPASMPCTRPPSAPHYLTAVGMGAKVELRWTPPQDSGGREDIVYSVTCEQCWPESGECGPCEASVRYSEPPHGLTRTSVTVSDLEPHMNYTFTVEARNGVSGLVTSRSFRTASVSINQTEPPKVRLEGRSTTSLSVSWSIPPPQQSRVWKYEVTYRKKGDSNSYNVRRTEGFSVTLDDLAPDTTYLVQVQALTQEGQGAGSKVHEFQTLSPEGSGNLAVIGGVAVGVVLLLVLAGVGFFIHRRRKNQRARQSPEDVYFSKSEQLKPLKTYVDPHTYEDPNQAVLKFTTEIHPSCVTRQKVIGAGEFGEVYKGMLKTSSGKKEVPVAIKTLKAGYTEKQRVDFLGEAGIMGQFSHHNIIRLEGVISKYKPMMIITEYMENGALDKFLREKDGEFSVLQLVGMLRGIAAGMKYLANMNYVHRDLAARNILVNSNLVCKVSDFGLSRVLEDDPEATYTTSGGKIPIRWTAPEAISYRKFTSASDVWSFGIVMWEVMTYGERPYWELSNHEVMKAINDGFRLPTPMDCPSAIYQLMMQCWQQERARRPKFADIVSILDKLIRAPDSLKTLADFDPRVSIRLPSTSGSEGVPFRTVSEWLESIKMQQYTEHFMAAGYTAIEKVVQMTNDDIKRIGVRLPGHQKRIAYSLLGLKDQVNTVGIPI
UniProt P21860, whole entry: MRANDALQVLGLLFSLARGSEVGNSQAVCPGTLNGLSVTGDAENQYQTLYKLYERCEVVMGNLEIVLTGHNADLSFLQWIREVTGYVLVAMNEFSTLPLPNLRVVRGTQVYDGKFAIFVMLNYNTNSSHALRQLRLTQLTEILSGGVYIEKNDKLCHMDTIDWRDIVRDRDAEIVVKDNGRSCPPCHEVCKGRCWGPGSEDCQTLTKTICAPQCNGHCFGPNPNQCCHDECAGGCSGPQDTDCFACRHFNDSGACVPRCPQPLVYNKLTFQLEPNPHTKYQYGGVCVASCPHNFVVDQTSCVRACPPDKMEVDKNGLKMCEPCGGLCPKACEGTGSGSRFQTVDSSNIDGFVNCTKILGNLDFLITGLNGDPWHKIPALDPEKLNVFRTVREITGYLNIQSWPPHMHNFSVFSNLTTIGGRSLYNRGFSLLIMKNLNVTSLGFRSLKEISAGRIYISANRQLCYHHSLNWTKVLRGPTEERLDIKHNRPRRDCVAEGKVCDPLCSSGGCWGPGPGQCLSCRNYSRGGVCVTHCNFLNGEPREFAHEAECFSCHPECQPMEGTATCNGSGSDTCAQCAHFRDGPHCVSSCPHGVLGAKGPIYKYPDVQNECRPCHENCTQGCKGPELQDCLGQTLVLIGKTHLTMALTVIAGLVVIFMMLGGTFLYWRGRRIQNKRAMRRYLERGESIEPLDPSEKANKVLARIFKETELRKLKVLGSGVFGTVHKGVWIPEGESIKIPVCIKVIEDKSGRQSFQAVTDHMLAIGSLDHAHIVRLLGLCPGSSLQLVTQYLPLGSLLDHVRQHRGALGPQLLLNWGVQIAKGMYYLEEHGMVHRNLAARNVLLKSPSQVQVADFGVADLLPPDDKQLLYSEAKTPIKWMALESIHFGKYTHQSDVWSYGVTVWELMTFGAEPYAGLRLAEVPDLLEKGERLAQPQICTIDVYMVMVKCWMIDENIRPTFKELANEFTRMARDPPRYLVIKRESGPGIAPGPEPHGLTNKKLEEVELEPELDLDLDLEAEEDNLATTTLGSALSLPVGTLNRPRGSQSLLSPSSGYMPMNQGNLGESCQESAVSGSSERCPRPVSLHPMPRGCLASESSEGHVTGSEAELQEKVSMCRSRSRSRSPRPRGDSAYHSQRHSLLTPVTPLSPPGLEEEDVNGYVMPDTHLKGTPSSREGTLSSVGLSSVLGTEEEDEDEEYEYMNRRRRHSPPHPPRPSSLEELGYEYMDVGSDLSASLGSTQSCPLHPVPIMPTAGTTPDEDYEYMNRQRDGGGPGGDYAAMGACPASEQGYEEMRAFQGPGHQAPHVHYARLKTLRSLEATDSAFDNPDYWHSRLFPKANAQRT
UniProt Q15303, whole entry R711C: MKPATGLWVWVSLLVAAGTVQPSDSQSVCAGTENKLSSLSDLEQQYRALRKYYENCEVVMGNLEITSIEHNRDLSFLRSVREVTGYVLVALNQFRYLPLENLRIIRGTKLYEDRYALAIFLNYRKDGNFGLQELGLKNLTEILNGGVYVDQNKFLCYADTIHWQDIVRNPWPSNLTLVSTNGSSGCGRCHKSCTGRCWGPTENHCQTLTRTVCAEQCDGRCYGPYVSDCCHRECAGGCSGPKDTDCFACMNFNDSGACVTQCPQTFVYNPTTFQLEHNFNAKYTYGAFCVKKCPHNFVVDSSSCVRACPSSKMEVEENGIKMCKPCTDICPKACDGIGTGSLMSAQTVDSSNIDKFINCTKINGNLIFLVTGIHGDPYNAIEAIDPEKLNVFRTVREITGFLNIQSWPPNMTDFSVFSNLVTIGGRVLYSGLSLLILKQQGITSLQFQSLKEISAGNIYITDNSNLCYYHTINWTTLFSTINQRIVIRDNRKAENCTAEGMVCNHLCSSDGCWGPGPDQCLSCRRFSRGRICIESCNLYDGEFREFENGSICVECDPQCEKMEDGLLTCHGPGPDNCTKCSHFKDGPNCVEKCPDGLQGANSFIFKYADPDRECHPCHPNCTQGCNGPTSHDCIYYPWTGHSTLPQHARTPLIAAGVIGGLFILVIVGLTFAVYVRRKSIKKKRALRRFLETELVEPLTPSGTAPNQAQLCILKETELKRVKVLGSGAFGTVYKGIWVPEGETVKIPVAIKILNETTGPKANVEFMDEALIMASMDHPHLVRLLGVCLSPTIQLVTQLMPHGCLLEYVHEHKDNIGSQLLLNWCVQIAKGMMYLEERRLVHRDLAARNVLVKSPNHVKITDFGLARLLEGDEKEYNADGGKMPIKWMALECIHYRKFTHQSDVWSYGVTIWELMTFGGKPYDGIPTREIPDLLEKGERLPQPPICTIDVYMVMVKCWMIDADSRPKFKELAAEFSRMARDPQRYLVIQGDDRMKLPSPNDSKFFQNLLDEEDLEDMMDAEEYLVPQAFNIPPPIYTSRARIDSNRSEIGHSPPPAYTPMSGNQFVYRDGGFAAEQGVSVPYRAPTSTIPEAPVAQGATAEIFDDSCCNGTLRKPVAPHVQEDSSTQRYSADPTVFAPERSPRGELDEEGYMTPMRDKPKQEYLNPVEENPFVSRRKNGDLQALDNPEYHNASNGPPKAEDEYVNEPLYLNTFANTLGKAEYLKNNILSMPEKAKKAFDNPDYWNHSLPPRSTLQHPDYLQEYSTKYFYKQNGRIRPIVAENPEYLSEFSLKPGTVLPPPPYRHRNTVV

Tests used:
Test in all cases: kinase-Nluc reporter destabilization hit call (1 = scored as downregulated) (binary); higher = compound decreases kinase abundance
Conditions in all cases: K562, 2-18 h
[1] = target: EGFR (UniProt P00533)
[2] = target: EGFR_G719S (UniProt P00533)
[3] = target: EGFR_G719S_T790M (UniProt P00533)
[4] = target: EGFR_L718V (UniProt P00533)
[5] = target: EGFR_L858R (UniProt P00533)
[6] = target: EGFR_L861Q (UniProt P00533)
[7] = target: EGFR_T790M (UniProt P00533)
[8] = target: EPHA2 (UniProt P29317)
[9] = target: ERBB3 (UniProt P21860)
[10] = target: ERBB4_R711C (clone: ERBB4_mut) (UniProt Q15303)

Measured: kinase-Nluc reporter destabilization hit call

CCCCCCCCc1ccc(CCC(N)(CO)CO)cc1 [Fingolimod (hydrochloride)]
inactive: [1]; 2.5 µM 0 | [2]; 2.5 µM 0 | [3]; 2.5 µM 0 | [4]; 2.5 µM 0 | [5]; 2.5 µM 0 | [6]; 2.5 µM 0 | [7]; 2.5 µM 0 | [8]; 2.5 µM 0 | [9]; 2.5 µM 0 | [10]; 2.5 µM 0

N#CCNC(=O)c1ccc(-c2ccnc(Nc3ccc(N4CCOCC4)cc3)n2)cc1 [Momelotinib]
inactive: [1]; 10 µM 0 | [2]; 10 µM 0 | [3]; 10 µM 0 | [4]; 10 µM 0 | [5]; 10 µM 0 | [6]; 10 µM 0 | [7]; 10 µM 0 | [8]; 10 µM 0 | [9]; 10 µM 0 | [10]; 10 µM 0

CNC(=O)c1ccccc1Nc1cc(Nc2ccc(N3CCOCC3)cc2OC)ncc1C(F)(F)F
inactive: [1]; 10 µM 0 | [2]; 10 µM 0 | [3]; 10 µM 0 | [4]; 10 µM 0 | [5]; 10 µM 0 | [6]; 10 µM 0 | [7]; 10 µM 0 | [8]; 10 µM 0 | [9]; 10 µM 0 | [10]; 10 µM 0

CN(C)C(=O)c1cc2cnc(Nc3ccc(N4CCNCC4)cn3)nc2n1C1CCCC1 [Ribociclib succinate hydrate]
inactive: [1]; 2.5 µM 0 | [2]; 2.5 µM 0 | [3]; 2.5 µM 0 | [4]; 2.5 µM 0 | [5]; 2.5 µM 0 | [6]; 2.5 µM 0 | [7]; 2.5 µM 0 | [8]; 2.5 µM 0 | [9]; 2.5 µM 0 | [10]; 2.5 µM 0

Retrieved one by one from the list above (2):
CN(C)C(=O)c1cc2cnc(Nc3ccc(N4CCNCC4)cn3)nc2n1C1CCCC1 [Ribociclib succinate hydrate]
inactive: [1]; 2.5 µM 0 | [2]; 2.5 µM 0 | [3]; 2.5 µM 0 | [4]; 2.5 µM 0 | [5]; 2.5 µM 0 | [6]; 2.5 µM 0 | [7]; 2.5 µM 0 | [8]; 2.5 µM 0 | [9]; 2.5 µM 0 | [10]; 2.5 µM 0

CCCCCCCCc1ccc(CCC(N)(CO)CO)cc1 [Fingolimod (hydrochloride)]
inactive: [1]; 2.5 µM 0 | [2]; 2.5 µM 0 | [3]; 2.5 µM 0 | [4]; 2.5 µM 0 | [5]; 2.5 µM 0 | [6]; 2.5 µM 0 | [7]; 2.5 µM 0 | [8]; 2.5 µM 0 | [9]; 2.5 µM 0 | [10]; 2.5 µM 0

(further entries)

O=C(O)c1ccc2c(c1)nc(Nc1cccc(Cl)c1)c1ccncc12 [Silmitasertib (sodium salt)]
inactive: [1]; 10 µM 0 | [2]; 10 µM 0 | [3]; 10 µM 0 | [4]; 10 µM 0 | [5]; 10 µM 0 | [6]; 10 µM 0 | [7]; 10 µM 0 | [8]; 10 µM 0 | [9]; 10 µM 0 | [10]; 10 µM 0

COCCOc1cc(F)c2c(Nc3ccc(NC(=O)Cn4cc(C(C)C)nn4)cc3)ncnc2c1
inactive: [1]; 10 µM 0 | [2]; 10 µM 0 | [3]; 10 µM 0 | [4]; 10 µM 0 | [5]; 10 µM 0 | [6]; 10 µM 0 | [7]; 10 µM 0 | [8]; 10 µM 0 | [9]; 10 µM 0 | [10]; 10 µM 0

COc1ccc(S(=O)(=O)N(CCO)c2ccccc2CN(C)C/C=C/c2ccc(Cl)cc2)cc1 [KN-93 (hydrochloride)]
inactive: [1]; 2.5 µM 0 | [2]; 2.5 µM 0 | [3]; 2.5 µM 0 | [4]; 2.5 µM 0 | [5]; 2.5 µM 0 | [6]; 2.5 µM 0 | [7]; 2.5 µM 0 | [8]; 2.5 µM 0 | [9]; 2.5 µM 0 | [10]; 2.5 µM 0

N#CCNC(=O)c1ccc(-c2ccnc(Nc3ccc(N4CCOCC4)cc3)n2)cc1 [Momelotinib sulfate]
inactive: [1]; 10 µM 0 | [2]; 10 µM 0 | [3]; 10 µM 0 | [4]; 10 µM 0 | [5]; 10 µM 0 | [6]; 10 µM 0 | [7]; 10 µM 0 | [8]; 10 µM 0 | [9]; 10 µM 0 | [10]; 10 µM 0

OCCn1cc(-c2cnc3nnn(Cc4ccc5ncccc5c4)c3n2)cn1
inactive: [1]; 10 µM 0 | [2]; 10 µM 0 | [3]; 10 µM 0 | [4]; 10 µM 0 | [5]; 10 µM 0 | [6]; 10 µM 0 | [7]; 10 µM 0 | [8]; 10 µM 0 | [9]; 10 µM 0 | [10]; 10 µM 0

CC(C)Oc1ccc(-c2nn([C@@H](C)c3oc4ccc(F)cc4c(=O)c3-c3cccc(F)c3)c3ncnc(N)c23)cc1F [Umbralisib]
inactive: [1]; 2.5 µM 0 | [2]; 2.5 µM 0 | [3]; 2.5 µM 0 | [4]; 2.5 µM 0 | [5]; 2.5 µM 0 | [6]; 2.5 µM 0 | [7]; 2.5 µM 0 | [8]; 2.5 µM 0 | [9]; 2.5 µM 0 | [10]; 2.5 µM 0

CN(C)C(=N)NC(=N)N [Metformin]
inactive: [1]; 10 µM 0 | [2]; 10 µM 0 | [3]; 10 µM 0 | [4]; 10 µM 0 | [5]; 10 µM 0 | [6]; 10 µM 0 | [7]; 10 µM 0 | [8]; 10 µM 0 | [9]; 10 µM 0 | [10]; 10 µM 0

CCCC(=O)Nc1ncnc2c1ncn2[C@@H]1O[C@@H]2COP(=O)(O)O[C@H]2[C@H]1OC(=O)CCC [Bucladesine (calcium)]
inactive: [1]; 10 µM 0 | [2]; 10 µM 0 | [3]; 10 µM 0 | [4]; 10 µM 0 | [5]; 10 µM 0 | [6]; 10 µM 0 | [7]; 10 µM 0 | [8]; 10 µM 0 | [9]; 10 µM 0 | [10]; 10 µM 0

CN1CCCN(C(=O)c2cccc(-c3ccc(/C=C4/C(=O)Nc5ccc(Cl)cc54)o3)c2)CC1 [CX-6258 (hydrochloride hydrate)]
inactive: [1]; 2.5 µM 0 | [2]; 2.5 µM 0 | [3]; 2.5 µM 0 | [4]; 2.5 µM 0 | [5]; 2.5 µM 0 | [6]; 2.5 µM 0 | [7]; 2.5 µM 0 | [8]; 2.5 µM 0 | [9]; 2.5 µM 0 | [10]; 2.5 µM 0

Nc1ncnc2c1c(-c1ccc(Oc3ccccc3)cc1)nn2[C@@H]1CCCNC1 [IBT6A (hydrochloride)]
inactive: [1]; 2.5 µM 0 | [2]; 2.5 µM 0 | [3]; 2.5 µM 0 | [4]; 2.5 µM 0 | [5]; 2.5 µM 0 | [6]; 2.5 µM 0 | [7]; 2.5 µM 0 | [8]; 2.5 µM 0 | [9]; 2.5 µM 0 | [10]; 2.5 µM 0

C[C@@H](N)c1ccc(C(=O)Nc2ccnc3[nH]ccc23)cc1
inactive: [1]; 10 µM 0 | [2]; 10 µM 0 | [3]; 10 µM 0 | [4]; 10 µM 0 | [5]; 10 µM 0 | [6]; 10 µM 0 | [7]; 10 µM 0 | [8]; 10 µM 0 | [9]; 10 µM 0 | [10]; 10 µM 0
